Values from PubChem BioAssay AID1224826 (NIAID, 2016)

Screen: 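Knock-downs that raise or lower Tnf reporter signal after endotoxin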 (primary screen)
System: RAW264.7 G9 macrophages from mouse bearing reporters for p65 (GFP) and the Tnf promoter (mCherry)
Reagents: siRNA pool against mouse genes, 100 nM
Timing: 16 h of LPS stimulation, after 2 days of siRNA transfection
Treatment: bacterial lipopolysaccharide (Salmonella minnesota R595), 10 ng/ml
Measured: 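Nuclear mCherry signal of the Tnf promoter reporter measured by imaging after background removal, scaled to each plate median and turned into robust z-scores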
Reading the numbers: Tnf reporter robust z-score: higher = stronger Tnf promoter reporter signal after LPS; Tnf reporter intensity: higher = stronger Tnf promoter reporter signal
Call rule: 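a well counts as active at a score of -1.3 or below (Tlr4 knock-down control median) or above 3 (raised signal); controls and wells holding fewer than 50 cells are excluded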
Calls: active = Tnf reporter clearly lowered or raised; inactive = no clear change in Tnf reporter
This is one part, drawn at random, of about 17,000 reagents tested. About 1,110 of them (6.6%) count as active. 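Active means lowered or raised reporter signal; replicate intensities are raw and not normalised per plate.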 The numbers tell different reagents against one gene apart. Some reagents were tested in more than one well and are listed for each.

target gene	pool no.	Tnf reporter robust z-score	fewer than 50 cells in well	Tnf reporter intensity, replicate 1	Tnf reporter intensity, replicate 2	Outcome
Itih1 (inter-alpha trypsin inhibitor, heavy chain 1)	1	0.2	enough cells in well	193	148	inactive
Fancb (Fanconi anemia, complementation group B)	1	0.59	enough cells in well	234	264	inactive
Nodal (nodal growth differentiation factor)	1	-1.24	enough cells in well	116	126	inactive
Jag2 (jagged 2)	1	1.66	enough cells in well	353	250	inactive
Cldn3 (claudin 3)	1	0.64	enough cells in well	257	293	inactive
Rgs8 (regulator of G-protein signaling 8)	1	1.52	enough cells in well	291	267	inactive
B4galt6	1	0.29	enough cells in well	238	216	inactive
Mindy2 (MINDY lysine 48 deubiquitinase 2)	1	0.54	enough cells in well	200	197	inactive
Tagln (transgelin)	1	-0.66	enough cells in well	209	86.7	inactive
Csrp1 (cysteine and glycine-rich protein 1)	1	0.38	enough cells in well	254	240	inactive
4932411K12Rik (retired record)	1		fewer than 50 cells per well; well left out of calls	337	142	inactive
Mtmr6 (myotubularin related protein 6)	1	0.33	enough cells in well	283	236	inactive
Ighg3 (Immunoglobulin heavy constant gamma 3)	1	-0.66	enough cells in well	153	154	inactive
Anapc4 (anaphase promoting complex subunit 4)	1	-0.68	enough cells in well	108	156	inactive
Stk32b (serine/threonine kinase 32B)	1		fewer than 50 cells per well; well left out of calls	150	120	inactive
Cdkn1c (cyclin dependent kinase inhibitor 1C)	1	0.29	enough cells in well	217	172	inactive
Pou5f1 (POU domain, class 5, transcription factor 1)	1	-0.19	enough cells in well	228	158	inactive
Sorcs2 (sortilin-related VPS10 domain containing receptor 2)	1	-0.18	enough cells in well	250	212	inactive
Scgb2b27 (secretoglobin, family 2B, member 27)	1	2.99	enough cells in well	129	335	inactive
Ints1 (integrator complex subunit 1)	1	0.68	enough cells in well	273	108	inactive
Pomk (protein-O-mannose kinase)	1	0.27	enough cells in well	248	143	inactive
Pomk (protein-O-mannose kinase)	1		fewer than 50 cells per well; well left out of calls	246	54.9	inactive
Irgc (immunity related GTPase cinema)	1	-0.63	enough cells in well	196	106	inactive
Morf4l2 (mortality factor 4 like 2)	1	2.42	enough cells in well	347	228	inactive
Rnf4 (ring finger protein 4)	1	-0.41	enough cells in well	268	175	inactive
Slc27a2	1	-1.3	enough cells in well	119	82.8	active
Meis3 (Meis homeobox 3)	1	-1.24	enough cells in well	124	66.3	inactive
Vil1 (villin 1)	1	0.22	enough cells in well	241	254	inactive
Stx8 (syntaxin 8)	1	1.06	enough cells in well	155	117	inactive
Tmem176b (transmembrane protein 176B)	1	-0.59	enough cells in well	173	69.4	inactive
Ttc27 (tetratricopeptide repeat domain 27)	1	0.44	enough cells in well	312	72.9	inactive
Grk2 (G protein-coupled receptor kinase 2)	1		fewer than 50 cells per well; well left out of calls	171	142	inactive
Grk2 (G protein-coupled receptor kinase 2)	1	0.23	enough cells in well	205	364	inactive
Chfr (checkpoint with forkhead and ring finger domains)	1	0.98	enough cells in well	318	286	inactive
Btf3l4 (basic transcription factor 3-like 4)	1		fewer than 50 cells per well; well left out of calls	233	137	inactive
Mast3 (microtubule associated serine/threonine kinase 3)	1	-1.14	enough cells in well	127	127	inactive
Ddo (D-aspartate oxidase)	1	2.22	enough cells in well	325	242	inactive
Casp9 (caspase 9)	1	-0.28	enough cells in well	123	159	inactive
Akr1c12 (aldo-keto reductase family 1, member C12)	1	-0.48	enough cells in well	161	168	inactive
Tbx6 (T-box 6)	1	0.67	enough cells in well	224	204	inactive
Tas1r1 (taste receptor, type 1, member 1)	1	1.53	enough cells in well	406	136	inactive
Or52n2b (olfactory receptor family 52 subfamily N member 2B)	1	2.94	enough cells in well	157	284	inactive
Gm10101 (predicted gene 10101)	1	1.77	enough cells in well	249	264	inactive
Fgf3 (fibroblast growth factor 3)	1	0.58	enough cells in well	303	285	inactive
Phox2b (paired-like homeobox 2b)	1	-0.49	enough cells in well	203	163	inactive
Dnajc2 (DnaJ heat shock protein family (Hsp40) member C2)	1	3.53	enough cells in well	371	276	active
Dnajc2 (DnaJ heat shock protein family (Hsp40) member C2)	2	-1.05	enough cells in well	65.2	97.6	inactive
Pdcd2 (programmed cell death 2)	1	-0.08	enough cells in well	243	171	inactive
Cdkn1a (cyclin dependent kinase inhibitor 1A)	1	-0.84	enough cells in well	125	126	inactive
5330416C01Rik (RIKEN cDNA 5330416C01 gene)	1	-1.47	enough cells in well	101	63.7	active
Lsm14b (LSM family member 14B)	1	-0.07	enough cells in well	100	159	inactive
Mok (MOK protein kinase)	1	1.53	enough cells in well	313	229	inactive
Fut1 (fucosyltransferase 1)	1	0.88	enough cells in well	348	292	inactive
R3hdm1 (R3H domain containing 1)	1	0.44	enough cells in well	168	130	inactive
Fmo1 (flavin containing monooxygenase 1)	1	1.44	enough cells in well	405	328	inactive
A530021J07Rik (Riken cDNA A530021J07 gene)	1	1.46	enough cells in well	235	251	inactive
Bag2 (BCL2-associated athanogene 2)	1	-0.59	enough cells in well	109	140	inactive
Il7 (interleukin 7)	1	0.32	enough cells in well	267	165	inactive

In a second layout: 4 of the entries above.
target gene | pool no. | Tnf reporter robust z-score | fewer than 50 cells in well | Tnf reporter intensity, replicate 1 | Tnf reporter intensity, replicate 2 | Outcome
Tagln (transgelin) | 1 | -0.66 | enough cells in well | 209 | 86.7 | inactive
Csrp1 (cysteine and glycine-rich protein 1) | 1 | 0.38 | enough cells in well | 254 | 240 | inactive
4932411K12Rik (retired record) | 1 | – | fewer than 50 cells per well; well left out of calls | 337 | 142 | inactive
Mtmr6 (myotubularin related protein 6) | 1 | 0.33 | enough cells in well | 283 | 236 | inactive
